Measurements reported in patent publication US4215110A, “Method of treating hypertension” (Merck & Co., Inc., priority 1978, dated 1980).
At least one peptide structure holds a part that was inferred or is arguable (an end, a ring closure or a residue).

Test system: spontaneously hypertensive (SH) rats
Test: antihypertensive activity test in spontaneously hypertensive (SH) rats
Format: in vivo, rat
Description: The present tripeptides have antihypertensive activity. This antihypertensive activity was determined using a test procedure which involved administration of representative compounds to spontaneously hypertensive (SH) rats.

NC(=O)C1CSCN1C(=O)C(Cc1c[nH]cn1)NC(=O)[C@@H]1CCCC(=O)N1 (stereo partly drawn) [L-N-(2-oxopiperidin-6-ylcarbonyl)-D,L-histidyl-D,L-N-thiazolidin-4-ylcarboxamide]
antihypertensive activity (administered intraperitoneally): significant antihypertensive activity | antihypertensive activity (administered orally): significant antihypertensive activity
